These are yes or no findings as the source states them, for the method shown. Binding seen in cells or lysates may run through a third protein. Here binding means that the protein was enriched with, or labelled near, the bait; the list need not be complete.

Protein sequences, listed by entry. Tags and fused reporters are not part of them.
UniProt O14497: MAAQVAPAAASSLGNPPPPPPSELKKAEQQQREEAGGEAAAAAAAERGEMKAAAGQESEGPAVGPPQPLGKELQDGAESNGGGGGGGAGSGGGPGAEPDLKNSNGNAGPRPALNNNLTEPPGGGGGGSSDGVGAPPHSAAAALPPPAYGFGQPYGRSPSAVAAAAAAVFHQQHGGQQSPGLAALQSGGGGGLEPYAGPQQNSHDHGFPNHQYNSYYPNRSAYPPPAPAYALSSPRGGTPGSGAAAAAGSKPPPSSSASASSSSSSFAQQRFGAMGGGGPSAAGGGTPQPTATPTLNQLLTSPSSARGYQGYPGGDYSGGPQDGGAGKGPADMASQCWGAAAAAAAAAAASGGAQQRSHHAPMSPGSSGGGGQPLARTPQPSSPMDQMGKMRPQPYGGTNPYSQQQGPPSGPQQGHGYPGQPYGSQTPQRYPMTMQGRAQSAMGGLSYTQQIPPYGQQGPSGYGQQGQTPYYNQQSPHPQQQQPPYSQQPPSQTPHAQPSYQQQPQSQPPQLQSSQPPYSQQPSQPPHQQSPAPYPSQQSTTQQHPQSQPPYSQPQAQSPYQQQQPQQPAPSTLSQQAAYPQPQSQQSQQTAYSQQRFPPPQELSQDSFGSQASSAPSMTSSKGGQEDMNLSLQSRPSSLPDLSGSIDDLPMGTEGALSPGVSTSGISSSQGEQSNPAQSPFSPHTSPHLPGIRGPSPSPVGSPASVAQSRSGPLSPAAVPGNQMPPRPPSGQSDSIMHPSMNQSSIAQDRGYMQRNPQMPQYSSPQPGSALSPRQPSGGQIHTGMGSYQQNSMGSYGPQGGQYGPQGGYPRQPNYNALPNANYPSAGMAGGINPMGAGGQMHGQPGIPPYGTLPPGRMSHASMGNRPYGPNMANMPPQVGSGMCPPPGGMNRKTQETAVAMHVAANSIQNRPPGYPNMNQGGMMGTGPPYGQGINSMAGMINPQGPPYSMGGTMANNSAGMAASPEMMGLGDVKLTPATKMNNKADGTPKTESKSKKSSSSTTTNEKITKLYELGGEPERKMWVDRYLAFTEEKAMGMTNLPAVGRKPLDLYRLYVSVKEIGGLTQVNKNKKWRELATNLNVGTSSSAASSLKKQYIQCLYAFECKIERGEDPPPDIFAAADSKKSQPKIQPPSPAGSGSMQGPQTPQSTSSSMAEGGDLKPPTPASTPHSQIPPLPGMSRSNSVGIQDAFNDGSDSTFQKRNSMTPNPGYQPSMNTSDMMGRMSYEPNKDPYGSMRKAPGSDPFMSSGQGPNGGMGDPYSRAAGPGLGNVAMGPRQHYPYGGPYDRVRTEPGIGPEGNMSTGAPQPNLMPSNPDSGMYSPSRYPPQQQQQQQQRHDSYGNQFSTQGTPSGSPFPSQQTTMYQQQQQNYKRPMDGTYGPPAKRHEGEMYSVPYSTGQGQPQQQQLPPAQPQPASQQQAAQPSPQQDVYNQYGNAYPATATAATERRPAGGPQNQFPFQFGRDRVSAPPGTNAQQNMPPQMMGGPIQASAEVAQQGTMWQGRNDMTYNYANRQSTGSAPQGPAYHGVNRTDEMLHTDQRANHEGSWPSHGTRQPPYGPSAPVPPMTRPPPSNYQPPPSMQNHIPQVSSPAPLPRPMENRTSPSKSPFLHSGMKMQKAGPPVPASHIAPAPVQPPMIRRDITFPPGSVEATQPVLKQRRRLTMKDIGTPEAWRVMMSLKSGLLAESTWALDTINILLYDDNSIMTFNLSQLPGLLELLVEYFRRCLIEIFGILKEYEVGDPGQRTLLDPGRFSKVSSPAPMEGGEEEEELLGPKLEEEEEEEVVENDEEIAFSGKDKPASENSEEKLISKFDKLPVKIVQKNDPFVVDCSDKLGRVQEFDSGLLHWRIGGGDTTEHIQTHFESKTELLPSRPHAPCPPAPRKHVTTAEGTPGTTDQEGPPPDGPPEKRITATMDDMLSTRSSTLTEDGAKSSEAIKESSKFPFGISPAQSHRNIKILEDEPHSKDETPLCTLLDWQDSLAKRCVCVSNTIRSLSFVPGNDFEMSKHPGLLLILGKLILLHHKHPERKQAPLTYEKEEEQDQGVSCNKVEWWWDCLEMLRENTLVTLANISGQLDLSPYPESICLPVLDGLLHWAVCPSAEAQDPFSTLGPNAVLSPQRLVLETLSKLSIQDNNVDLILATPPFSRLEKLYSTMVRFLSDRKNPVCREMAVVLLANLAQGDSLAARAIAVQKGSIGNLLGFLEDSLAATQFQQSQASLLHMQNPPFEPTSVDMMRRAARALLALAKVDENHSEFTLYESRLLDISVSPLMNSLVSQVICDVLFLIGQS
UniProt Q13547: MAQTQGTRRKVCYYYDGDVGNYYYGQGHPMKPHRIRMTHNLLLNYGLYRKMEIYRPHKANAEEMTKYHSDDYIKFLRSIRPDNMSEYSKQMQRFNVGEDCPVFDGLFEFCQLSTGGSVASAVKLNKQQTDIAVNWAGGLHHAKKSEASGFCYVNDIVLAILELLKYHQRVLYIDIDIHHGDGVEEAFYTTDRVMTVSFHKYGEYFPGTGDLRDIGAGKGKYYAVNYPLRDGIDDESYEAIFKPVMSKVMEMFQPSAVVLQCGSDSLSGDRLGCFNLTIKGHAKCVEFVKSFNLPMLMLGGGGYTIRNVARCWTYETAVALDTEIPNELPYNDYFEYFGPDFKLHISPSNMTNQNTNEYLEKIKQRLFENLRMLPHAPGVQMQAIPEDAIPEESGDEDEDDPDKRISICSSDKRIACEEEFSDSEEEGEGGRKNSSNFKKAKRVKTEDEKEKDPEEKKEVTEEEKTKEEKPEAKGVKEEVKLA

Among the data in PMC11162808 are binding values, retold here.

The target of the experiment is AT-rich interaction domain protein 1A (ARID1A) (human (endogenous in the paper's human cell lines; the line used for the IP is not stated)) (UniProt O14497). Nature of the experiment: affinity purification with mass spectrometry; IP with anti-ARID1A (anti-IgG as control) from 1.5-2 mg benzonase-treated nuclear lysate (300 mM NaCl, 20 mM HEPES pH 7.5), protein A/G magnetic beads, washes with TBST; on-bead digest, label-free quantification, FDR <0.05, log2 fold change >2.

Turning to HDAC1 (from UniProt Q13547 1-482), the binding entry was “binds”.
